Results published in the supplement of paper PMC10849652.
The list shows a part of the results. Residues, ends and D or L forms follow the SMILES beside them. *: point of attachment. Cbz = O=C(OCc1ccccc1)*

Chains of the proteins cited; added tags and fusions are not shown. Lines headed by an entry give the natural chain unless they say otherwise; changes in a name come on top.
UniProt Q86U28: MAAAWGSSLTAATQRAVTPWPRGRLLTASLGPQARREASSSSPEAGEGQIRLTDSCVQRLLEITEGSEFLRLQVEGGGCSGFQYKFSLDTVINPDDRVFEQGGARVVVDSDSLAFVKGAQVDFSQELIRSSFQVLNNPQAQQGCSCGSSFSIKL
UniProt Q14116, whole entry, looked up: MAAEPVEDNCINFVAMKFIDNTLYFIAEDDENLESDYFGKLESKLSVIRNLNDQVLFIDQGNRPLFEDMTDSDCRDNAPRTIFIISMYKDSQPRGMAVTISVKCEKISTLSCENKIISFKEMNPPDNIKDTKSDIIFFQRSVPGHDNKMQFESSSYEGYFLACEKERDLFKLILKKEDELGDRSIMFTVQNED
UniProt P48200: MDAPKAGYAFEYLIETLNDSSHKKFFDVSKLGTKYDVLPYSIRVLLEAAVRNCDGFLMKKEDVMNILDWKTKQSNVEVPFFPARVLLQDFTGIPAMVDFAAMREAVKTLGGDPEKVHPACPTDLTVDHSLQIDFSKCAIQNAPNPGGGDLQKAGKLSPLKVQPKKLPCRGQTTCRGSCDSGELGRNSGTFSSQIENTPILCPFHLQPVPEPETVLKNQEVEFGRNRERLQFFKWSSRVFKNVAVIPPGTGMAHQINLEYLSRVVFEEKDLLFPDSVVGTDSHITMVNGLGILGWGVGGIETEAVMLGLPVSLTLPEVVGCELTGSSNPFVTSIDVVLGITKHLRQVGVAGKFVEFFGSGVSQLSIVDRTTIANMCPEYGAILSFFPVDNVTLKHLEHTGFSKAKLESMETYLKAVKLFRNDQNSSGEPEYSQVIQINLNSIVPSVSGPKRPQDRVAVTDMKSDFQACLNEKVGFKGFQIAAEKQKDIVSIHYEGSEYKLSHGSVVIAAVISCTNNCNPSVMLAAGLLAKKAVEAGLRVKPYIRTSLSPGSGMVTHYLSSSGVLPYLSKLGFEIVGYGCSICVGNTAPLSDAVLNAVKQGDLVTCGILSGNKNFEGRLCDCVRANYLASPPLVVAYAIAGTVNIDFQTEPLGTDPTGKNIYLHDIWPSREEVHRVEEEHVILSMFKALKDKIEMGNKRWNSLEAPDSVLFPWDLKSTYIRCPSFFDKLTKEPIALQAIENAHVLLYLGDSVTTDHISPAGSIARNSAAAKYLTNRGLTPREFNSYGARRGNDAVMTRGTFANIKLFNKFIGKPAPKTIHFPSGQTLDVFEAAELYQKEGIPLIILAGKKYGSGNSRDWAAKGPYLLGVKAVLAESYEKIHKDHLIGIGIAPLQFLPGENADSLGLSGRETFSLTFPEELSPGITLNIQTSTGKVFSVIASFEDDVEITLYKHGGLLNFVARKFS
UniProt Q9NX62: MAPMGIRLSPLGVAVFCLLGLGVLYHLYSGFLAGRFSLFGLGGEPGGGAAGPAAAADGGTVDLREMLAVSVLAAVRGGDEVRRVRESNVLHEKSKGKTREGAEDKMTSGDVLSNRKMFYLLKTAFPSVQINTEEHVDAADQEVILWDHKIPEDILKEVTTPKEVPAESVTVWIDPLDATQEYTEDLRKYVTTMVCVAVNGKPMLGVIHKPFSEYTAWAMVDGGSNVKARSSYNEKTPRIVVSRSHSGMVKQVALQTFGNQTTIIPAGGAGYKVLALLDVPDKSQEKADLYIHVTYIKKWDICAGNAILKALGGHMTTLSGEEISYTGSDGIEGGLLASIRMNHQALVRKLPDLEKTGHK
UniProt O43736: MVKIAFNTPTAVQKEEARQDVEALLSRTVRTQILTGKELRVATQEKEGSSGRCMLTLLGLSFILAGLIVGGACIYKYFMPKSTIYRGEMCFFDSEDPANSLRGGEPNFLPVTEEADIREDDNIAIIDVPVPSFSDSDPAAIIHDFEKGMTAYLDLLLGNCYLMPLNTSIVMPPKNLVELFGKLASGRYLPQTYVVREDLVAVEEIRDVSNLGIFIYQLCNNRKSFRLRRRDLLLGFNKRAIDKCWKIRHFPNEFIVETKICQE
UniProt O75874, whole entry, looked up: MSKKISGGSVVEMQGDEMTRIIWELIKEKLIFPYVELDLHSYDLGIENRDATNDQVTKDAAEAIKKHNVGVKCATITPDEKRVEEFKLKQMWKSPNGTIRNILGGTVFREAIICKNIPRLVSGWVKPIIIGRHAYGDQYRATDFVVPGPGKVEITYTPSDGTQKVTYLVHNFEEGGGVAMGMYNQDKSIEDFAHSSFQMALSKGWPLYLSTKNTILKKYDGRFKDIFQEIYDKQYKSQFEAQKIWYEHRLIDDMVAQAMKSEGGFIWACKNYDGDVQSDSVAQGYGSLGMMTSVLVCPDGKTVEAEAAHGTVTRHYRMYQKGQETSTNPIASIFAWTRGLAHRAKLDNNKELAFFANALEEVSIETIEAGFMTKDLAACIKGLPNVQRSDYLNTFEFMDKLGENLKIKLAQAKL
UniProt O00425, whole entry, looked up: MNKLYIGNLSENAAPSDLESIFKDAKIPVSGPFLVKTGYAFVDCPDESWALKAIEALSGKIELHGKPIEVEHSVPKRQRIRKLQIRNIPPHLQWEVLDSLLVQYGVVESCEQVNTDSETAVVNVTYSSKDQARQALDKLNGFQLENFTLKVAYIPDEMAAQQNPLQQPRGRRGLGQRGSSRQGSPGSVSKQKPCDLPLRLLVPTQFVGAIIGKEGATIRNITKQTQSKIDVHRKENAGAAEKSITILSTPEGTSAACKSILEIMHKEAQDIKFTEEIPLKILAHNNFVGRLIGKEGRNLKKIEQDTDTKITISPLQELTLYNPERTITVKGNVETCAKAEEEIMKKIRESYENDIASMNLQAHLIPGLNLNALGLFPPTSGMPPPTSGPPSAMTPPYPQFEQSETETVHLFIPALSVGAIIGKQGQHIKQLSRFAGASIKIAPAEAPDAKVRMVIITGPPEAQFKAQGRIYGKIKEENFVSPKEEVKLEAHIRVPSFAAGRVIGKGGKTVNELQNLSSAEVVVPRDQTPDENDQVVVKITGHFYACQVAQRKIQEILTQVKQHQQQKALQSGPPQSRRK
UniProt O00410: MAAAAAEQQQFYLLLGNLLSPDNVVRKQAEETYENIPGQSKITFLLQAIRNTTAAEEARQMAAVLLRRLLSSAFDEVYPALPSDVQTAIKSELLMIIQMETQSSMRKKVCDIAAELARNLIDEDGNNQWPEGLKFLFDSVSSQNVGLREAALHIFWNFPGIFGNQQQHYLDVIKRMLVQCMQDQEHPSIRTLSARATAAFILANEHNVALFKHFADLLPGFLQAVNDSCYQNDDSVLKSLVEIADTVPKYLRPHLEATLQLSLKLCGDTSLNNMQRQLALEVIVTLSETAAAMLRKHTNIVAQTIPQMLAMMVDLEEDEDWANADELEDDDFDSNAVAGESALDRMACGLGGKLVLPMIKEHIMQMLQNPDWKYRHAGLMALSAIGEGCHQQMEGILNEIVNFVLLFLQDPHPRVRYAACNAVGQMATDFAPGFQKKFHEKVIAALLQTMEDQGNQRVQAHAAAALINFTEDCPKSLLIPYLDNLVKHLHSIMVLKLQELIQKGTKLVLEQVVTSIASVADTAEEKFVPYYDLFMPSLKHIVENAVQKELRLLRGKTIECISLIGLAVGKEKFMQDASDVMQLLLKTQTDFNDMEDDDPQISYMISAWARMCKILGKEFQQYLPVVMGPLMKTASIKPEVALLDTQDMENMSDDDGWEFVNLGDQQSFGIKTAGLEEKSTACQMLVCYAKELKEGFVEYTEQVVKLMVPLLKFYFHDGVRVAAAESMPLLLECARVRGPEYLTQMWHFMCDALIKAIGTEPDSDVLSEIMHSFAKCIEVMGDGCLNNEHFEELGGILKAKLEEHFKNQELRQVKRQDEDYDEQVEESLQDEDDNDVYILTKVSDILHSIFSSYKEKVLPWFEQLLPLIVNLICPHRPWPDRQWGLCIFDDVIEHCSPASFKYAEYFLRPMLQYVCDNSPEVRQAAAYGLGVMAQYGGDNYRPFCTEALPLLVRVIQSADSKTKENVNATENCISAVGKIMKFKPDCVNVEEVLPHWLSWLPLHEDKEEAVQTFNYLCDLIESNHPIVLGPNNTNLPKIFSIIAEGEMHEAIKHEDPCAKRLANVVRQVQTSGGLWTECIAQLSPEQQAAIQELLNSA
UniProt Q13572: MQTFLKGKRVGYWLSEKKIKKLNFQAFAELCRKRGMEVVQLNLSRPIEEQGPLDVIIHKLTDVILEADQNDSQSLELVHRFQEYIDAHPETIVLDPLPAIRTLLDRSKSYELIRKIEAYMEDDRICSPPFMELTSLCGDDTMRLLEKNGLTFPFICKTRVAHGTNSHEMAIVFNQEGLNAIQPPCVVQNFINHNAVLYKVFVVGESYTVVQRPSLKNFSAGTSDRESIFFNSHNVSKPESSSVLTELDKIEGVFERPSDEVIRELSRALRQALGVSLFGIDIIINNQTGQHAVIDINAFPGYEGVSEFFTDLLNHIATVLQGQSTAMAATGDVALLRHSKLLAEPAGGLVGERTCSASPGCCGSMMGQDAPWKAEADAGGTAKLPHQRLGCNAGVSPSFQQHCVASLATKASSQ
UniProt Q96CN7: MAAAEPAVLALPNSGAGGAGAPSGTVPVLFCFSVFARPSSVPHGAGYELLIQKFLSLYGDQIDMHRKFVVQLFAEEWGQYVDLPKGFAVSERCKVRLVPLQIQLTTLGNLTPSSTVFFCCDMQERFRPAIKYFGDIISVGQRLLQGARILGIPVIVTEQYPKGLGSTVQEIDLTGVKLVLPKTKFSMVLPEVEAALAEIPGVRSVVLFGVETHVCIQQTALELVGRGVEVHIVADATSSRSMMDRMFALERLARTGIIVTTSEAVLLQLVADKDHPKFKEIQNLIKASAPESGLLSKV
UniProt Q96SY0, whole entry, looked up: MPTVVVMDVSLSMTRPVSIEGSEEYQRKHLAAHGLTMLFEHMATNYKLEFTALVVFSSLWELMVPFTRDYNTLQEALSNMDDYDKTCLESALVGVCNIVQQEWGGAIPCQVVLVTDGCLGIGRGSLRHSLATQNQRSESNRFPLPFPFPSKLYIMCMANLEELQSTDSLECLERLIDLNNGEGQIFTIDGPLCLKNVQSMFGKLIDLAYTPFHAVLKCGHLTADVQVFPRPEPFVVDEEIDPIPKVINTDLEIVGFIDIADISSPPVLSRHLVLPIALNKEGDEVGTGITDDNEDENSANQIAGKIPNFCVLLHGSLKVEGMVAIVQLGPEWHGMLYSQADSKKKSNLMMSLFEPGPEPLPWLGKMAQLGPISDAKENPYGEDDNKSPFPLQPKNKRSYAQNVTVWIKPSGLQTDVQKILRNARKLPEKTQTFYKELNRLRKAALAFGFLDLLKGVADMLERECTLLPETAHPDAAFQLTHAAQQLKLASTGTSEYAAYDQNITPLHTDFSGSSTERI
UniProt P0DMQ5: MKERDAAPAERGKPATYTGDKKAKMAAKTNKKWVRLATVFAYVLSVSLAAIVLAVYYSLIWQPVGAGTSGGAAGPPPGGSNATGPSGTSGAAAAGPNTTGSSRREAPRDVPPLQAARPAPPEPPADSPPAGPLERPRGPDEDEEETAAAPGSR
UniProt Q5TA45, whole entry, looked up: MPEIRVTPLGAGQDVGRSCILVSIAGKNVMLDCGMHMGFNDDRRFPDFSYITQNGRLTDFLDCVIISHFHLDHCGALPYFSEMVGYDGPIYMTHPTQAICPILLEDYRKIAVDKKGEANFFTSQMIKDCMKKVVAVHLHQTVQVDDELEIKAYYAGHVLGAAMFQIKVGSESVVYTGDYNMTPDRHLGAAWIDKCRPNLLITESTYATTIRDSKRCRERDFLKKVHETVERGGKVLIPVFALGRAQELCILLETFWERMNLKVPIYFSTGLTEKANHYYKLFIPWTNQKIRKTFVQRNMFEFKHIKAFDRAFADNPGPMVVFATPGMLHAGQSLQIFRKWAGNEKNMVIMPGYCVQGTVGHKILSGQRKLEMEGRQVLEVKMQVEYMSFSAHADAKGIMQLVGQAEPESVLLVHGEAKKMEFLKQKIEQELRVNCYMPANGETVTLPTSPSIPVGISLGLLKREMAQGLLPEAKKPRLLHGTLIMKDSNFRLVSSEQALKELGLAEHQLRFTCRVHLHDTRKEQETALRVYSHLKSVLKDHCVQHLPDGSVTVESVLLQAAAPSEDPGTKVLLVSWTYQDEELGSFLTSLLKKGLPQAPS
UniProt O43837: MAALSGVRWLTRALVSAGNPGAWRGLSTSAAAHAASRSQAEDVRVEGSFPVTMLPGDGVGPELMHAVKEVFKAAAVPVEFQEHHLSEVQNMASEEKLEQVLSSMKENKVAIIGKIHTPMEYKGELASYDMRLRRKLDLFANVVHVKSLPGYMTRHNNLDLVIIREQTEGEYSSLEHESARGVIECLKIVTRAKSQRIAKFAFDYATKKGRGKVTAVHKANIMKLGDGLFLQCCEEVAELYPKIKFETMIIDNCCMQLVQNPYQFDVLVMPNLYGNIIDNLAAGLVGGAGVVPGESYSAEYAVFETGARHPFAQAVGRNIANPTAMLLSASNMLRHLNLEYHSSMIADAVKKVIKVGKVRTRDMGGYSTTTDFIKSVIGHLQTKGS

Tests used:
Assay in all cases: log2 fold change, soluble protein after heating vs DMSO (PISA); higher = thermal stabilisation; K562 cells, 10 uM, 30 min; active = over 0.2 and 3.5 SD of the protein, either way, in both replicates (recomputed)
erlotinib = compound: C#Cc1cccc(Nc2ncnc3cc(OCCOC)c(OCCOC)cc23)c1 [erlotinib]
Procedure, shortened: (§1)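 Aliquots of K562 cells (2×10^6 cells/mL) treated with 10 μM compound for 30 min were heated for 3 min over 48°C-58°C. After pooling and extraction in PBS with 0.5% NP-40 at 4°C, soluble protein from a 21,000xg, 90 min spin was quantified by TMTpro 16plex LC-MS/MS with channel sums equalised. Thermal stability is expressed against control samples, from duplicates, as a log2 fold change.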

[1] = compound: C/C(=N\NC(=O)C1=CC(=CC=C1)S(=O)(=O)N2CCOCC2)/C3=C(C=CC(=C3)Cl)O
Procedure, shortened: as §1

[2] = compound: C1=CC(=C(C=C1Cl)C2=NC3=NC=CN=C3C(=N2)NC4=CC=NC=C4)F
Procedure, shortened: as §1

[3] = compound: C1=CC(=CC=C1C2=NC3=C(N2)C=C(C=C3)C(=O)N)OC4=CC=C(C=C4)Cl
Procedure, shortened: as §1

[4] = compound: C1=CC2=C(C=CC(=C2)/C=C\3/C(=O)NC(=NCC4=CC=CS4)S3)N=C1
Procedure, shortened: as §1

[5] = compound: C1=CC2=NC=CN=C2C=C1/C=C/3\C(=O)NC(=O)S3
Procedure, shortened: as §1

[6] = compound: C1=CC=C(C=C1)C2=NC(=C(N2)C3=CC=NC=C3)C4=CC(=C(C=C4)Cl)O
Procedure, shortened: as §1

[7] = compound: C1=CC=C2C(=C1)C3=NNC4=CC=CC(=C43)C2=O
Procedure, shortened: as §1

[8] = compound: C1CCN(C1)C(=O)NC2=CC=CC(=C2)NC3=NC=C(C(=N3)NCCC4=CN=CN4)Br
Procedure, shortened: as §1

[9] = compound: C1CN(CCC1(CC2=CC=C(C=C2)Cl)N)C3=NC=NC4=C3C=CN4
Procedure, shortened: as §1

IRAK-1-4 Inhibitor I = compound: C1COCCN1CCN2C3=CC=CC=C3N=C2NC(=O)C4=CC(=CC=C4)[N+](=O)[O-] [IRAK-1-4 Inhibitor I]
Procedure, shortened: as §1

ibrutinib = compound: C=CC(=O)N1CCC[C@@H](n2nc(-c3ccc(Oc4ccccc4)cc3)c3c(N)ncnc32)C1 [ibrutinib]
Procedure, shortened: as §1

[10] = compound: CC(=O)c1cnc2ccc(-c3cc(Cl)c(O)c(Cl)c3)nc2c1N[C@H]1CC[C@H](CN(C)C)CC1
Procedure, shortened: as §1

ralimetinib = compound: CC(C)(C)Cn1c(N)nc2ccc(-c3[nH]c(C(C)(C)C)nc3-c3ccc(F)cc3)nc21 [ralimetinib]
Procedure, shortened: as §1

[11] = compound: CC(C)(O)CC(=O)NCCn1ccc2ncnc(Nc3ccc(Oc4cccc(C(F)(F)F)c4)c(Cl)c3)c21
Procedure, shortened: as §1

[12] = compound: CC(C)C1=C2N=C(C=C(N2N=C1)NCC3=CC=CC=C3)NCCCCCCN
Procedure, shortened: as §1

[13] = compound: CC(C)C[C@@H](C=O)NC(=O)[C@H](CC(C)C)NC(=O)[C@H](CC(C)C)NC(=O)OCc1ccccc1
Procedure, shortened: as §1

pinometostat = compound: CC(C)N(C[C@H]1O[C@@H](n2cnc3c(N)ncnc32)[C@H](O)[C@@H]1O)[C@H]1C[C@@H](CCc2nc3cc(C(C)(C)C)ccc3[nH]2)C1 [pinometostat]
Procedure, shortened: as §1

[14] = compound: CC1=C(C(CC(=O)N1)C2=CC=C(C=C2)C(F)(F)F)C(=O)NC3=C(C=C4C(=C3)C=NN4)F
Procedure, shortened: as §1

[15] = compound: CC1=C(C2=C(C=C1)C(=O)C3=CC=CC=C3N2CCCN)C
Procedure, shortened: as §1

Measured: log2 fold change

ISCA2 (UniProt Q86U28)
inactive: erlotinib -0.01 | [1] -0.103 | [2] 0.059 | [3] 0.048 | [4] 0.045 | [5] 0.017 | [6] 0.005 | [7] 0.002 | [8] -0.024 | [9] 0.011 | IRAK-1-4 Inhibitor I 0.025 | ibrutinib -0.022 | [10] -0.016 | ralimetinib -0.058 | [11] -0.035 | [12] 0.043 | [13] 0.019 | pinometostat -0.049 | [14] -0.043 | [15] 0.067

IMPDH2 (UniProt H0Y4R1)
inactive: erlotinib -0.137 | [1] -0.082 | [2] -0.17 | [3] 0.185 | [4] 0.12 | [5] -0.004 | [6] -0.027 | [7] -0.049 | [8] 0.001 | [9] 0 | IRAK-1-4 Inhibitor I -0.095 | ibrutinib -0.037 | [10] 0.022 | ralimetinib -0.032 | [11] -0.111 | [12] 0.06 | [13] -0.012 | pinometostat 0.052 | [14] -0.036 | [15] 0.023

IL18 (UniProt Q14116)
inactive: erlotinib 0.047 | [1] 0.009 | [2] 0.046 | [3] -0.021 | [4] 0.029 | [5] 0.033 | [6] -0.045 | [7] -0.023 | [8] -0.043 | [9] 0.058 | IRAK-1-4 Inhibitor I 0.047 | ibrutinib 0.047 | [10] 0.033 | ralimetinib -0.061 | [11] -0.019 | [12] 0.079 | [13] 0.09 | pinometostat 0.007 | [14] 0.05 | [15] 0

IREB2 (UniProt P48200)
inactive: erlotinib 0.121 | [1] -0.107 | [2] 0.063 | [3] 0.007 | [4] 0.002 | [5] -0.007 | [6] -0.037 | [7] 0.052 | [8] -0.091 | [9] 0.034 | IRAK-1-4 Inhibitor I -0.078 | ibrutinib -0.003 | [10] 0 | ralimetinib 0.073 | [11] -0.045 | [12] -0.09 | [13] 0.067 | pinometostat 0.084 | [14] 0.007 | [15] 0.021

IMPAD1 (UniProt Q9NX62)
inactive: erlotinib -0.035 | [1] -0.029 | [2] 0.013 | [3] -0.014 | [4] 0.07 | [5] 0.06 | [6] 0.017 | [7] -0.001 | [8] 0 | [9] 0.021 | IRAK-1-4 Inhibitor I -0.002 | ibrutinib 0.007 | [10] 0.005 | ralimetinib -0.134 | [11] -0.043 | [12] 0.063 | [13] 0.077 | pinometostat -0.077 | [14] 0.016 | [15] -0.001

ITM2A (UniProt O43736)
inactive: erlotinib 0.017 | [1] -0.039 | [2] 0.094 | [3] 0.047 | [4] 0.03 | [5] 0.018 | [6] 0.002 | [7] -0.052 | [8] -0.027 | [9] -0.101 | IRAK-1-4 Inhibitor I 0.012 | ibrutinib 0.012 | [10] 0.019 | ralimetinib 0.015 | [11] 0 | [12] 0.163 | [13] 0.157 | pinometostat 0.036 | [14] 0.024 | [15] -0.209

IDH1 (UniProt O75874)
inactive: erlotinib 0.021 | [1] -0.001 | [2] 0.075 | [3] 0 | [4] -0.005 | [5] -0.026 | [6] -0.02 | [7] -0.019 | [8] 0.026 | [9] 0.064 | IRAK-1-4 Inhibitor I 0.033 | ibrutinib 0.042 | [10] 0.015 | ralimetinib -0.037 | [11] -0.048 | [12] 0.024 | [13] -0.037 | pinometostat -0.055 | [14] 0.005 | [15] 0.005

IGF2BP3 (UniProt O00425)
inactive: erlotinib 0.011 | [1] -0.069 | [2] -0.549 | [3] 0.048 | [4] 0.023 | [5] -0.011 | [6] -0.092 | [7] 0.002 | [8] 0.069 | [9] -0.007 | IRAK-1-4 Inhibitor I -0.258 | ibrutinib 0.029 | [10] 0.016 | ralimetinib 0.304 | [11] 0.069 | [12] -0.273 | [13] 0.216 | pinometostat 0.411 | [14] -0.018 | [15] -0.201

IGSF3 (UniProt O75054)
inactive: erlotinib 0.026 | [1] 0.004 | [2] 0 | [3] 0.039 | [4] -0.028 | [5] 0.006 | [6] -0.003 | [7] -0.123 | [8] -0.019 | [9] 0.084 | IRAK-1-4 Inhibitor I 0.048 | ibrutinib 0.059 | [10] -0.035 | ralimetinib -0.006 | [11] -0.016 | [12] 0.124 | [13] 0.073 | pinometostat 0.004 | [14] 0.009 | [15] 0.019

IPO5 isoform 3 (UniProt O00410)
inactive: erlotinib -0.014 | [1] 0.109 | [2] 0.043 | [3] 0.038 | [4] -0.001 | [5] 0.064 | [6] 0.06 | [7] 0.03 | [8] -0.038 | [9] -0.015 | IRAK-1-4 Inhibitor I 0.038 | ibrutinib -0.026 | [10] 0.023 | ralimetinib 0.014 | [11] -0.137 | [12] -0.177 | [13] -0.056 | pinometostat -0.015 | [14] 0.037 | [15] 0.055

ITPK1 (UniProt Q13572)
inactive: erlotinib -0.001 | [1] 0.07 | [2] -0.012 | [3] 0.036 | [4] -0.019 | [5] 0.038 | [6] 0.058 | [7] 0.098 | [8] 0.027 | [9] -0.014 | IRAK-1-4 Inhibitor I -0.046 | ibrutinib -0.014 | [10] 0.03 | ralimetinib 0.021 | [11] 0.042 | [12] 0.13 | [13] -0.066 | pinometostat 0.02 | [14] -0.098 | [15] 0.016

ISOC1 (UniProt Q96CN7)
inactive: erlotinib -0.005 | [1] 0.017 | [2] 0.014 | [3] -0.026 | [4] 0.053 | [5] 0.006 | [6] -0.017 | [7] -0.011 | [8] 0 | [9] 0.046 | IRAK-1-4 Inhibitor I 0.014 | ibrutinib 0.024 | [10] -0.025 | ralimetinib -0.073 | [11] 0 | [12] 0.043 | [13] -0.016 | pinometostat -0.05 | [14] -0.012 | [15] 0.027

Two entries picked at random from those above:
ISOC1 (UniProt Q96CN7)
inactive: erlotinib -0.005 | [1] 0.017 | [2] 0.014 | [3] -0.026 | [4] 0.053 | [5] 0.006 | [6] -0.017 | [7] -0.011 | [8] 0 | [9] 0.046 | IRAK-1-4 Inhibitor I 0.014 | ibrutinib 0.024 | [10] -0.025 | ralimetinib -0.073 | [11] 0 | [12] 0.043 | [13] -0.016 | pinometostat -0.05 | [14] -0.012 | [15] 0.027

IGF2BP3 (UniProt O00425)
inactive: erlotinib 0.011 | [1] -0.069 | [2] -0.549 | [3] 0.048 | [4] 0.023 | [5] -0.011 | [6] -0.092 | [7] 0.002 | [8] 0.069 | [9] -0.007 | IRAK-1-4 Inhibitor I -0.258 | ibrutinib 0.029 | [10] 0.016 | ralimetinib 0.304 | [11] 0.069 | [12] -0.273 | [13] 0.216 | pinometostat 0.411 | [14] -0.018 | [15] -0.201

The results go on:

INTS14 (UniProt Q96SY0)
inactive: erlotinib 0.077 | [1] 0.071 | [2] 0.037 | [3] 0.057 | [4] 0.021 | [5] 0.029 | [6] 0.07 | [7] -0.022 | [8] -0.023 | [9] -0.009 | IRAK-1-4 Inhibitor I 0.005 | ibrutinib 0.016 | [10] -0.069 | ralimetinib -0.047 | [11] -0.082 | [12] -0.124 | [13] -0.01 | pinometostat -0.01 | [14] 0 | [15] 0.016

INAFM2 (UniProt P0DMQ5)
inactive: erlotinib -0.051 | [1] 0.011 | [2] -0.167 | [3] -0.025 | [4] -0.021 | [5] -0.089 | [6] 0.072 | [7] 0.073 | [8] 0.027 | [9] -0.088 | IRAK-1-4 Inhibitor I 0.078 | ibrutinib 0.113 | [10] -0.016 | ralimetinib 0.112 | [11] -0.02 | [12] 0.099 | [13] -0.039 | pinometostat -0.183 | [14] 0.118 | [15] 0.072

INTS11 (UniProt Q5TA45)
inactive: erlotinib -0.023 | [1] 0.03 | [2] 0.066 | [3] 0.035 | [4] 0.015 | [5] -0.013 | [6] -0.045 | [7] -0.012 | [8] -0.075 | [9] 0.02 | IRAK-1-4 Inhibitor I 0 | ibrutinib -0.019 | [10] -0.039 | ralimetinib -0.034 | [11] -0.073 | [12] -0.018 | [13] 0.02 | pinometostat -0.041 | [14] -0.002 | [15] 0.026

IDH3B (UniProt O43837)
inactive: erlotinib 0.002 | [1] 0.053 | [2] 0.115 | [3] 0.018 | [4] 0.017 | [5] 0.004 | [6] 0.09 | [7] 0.073 | [8] -0.033 | [9] 0.028 | IRAK-1-4 Inhibitor I 0.013 | ibrutinib 0.025 | [10] 0.021 | ralimetinib -0.011 | [11] -0.044 | [12] 0.037 | [13] -0.13 | pinometostat -0.068 | [14] 0.035 | [15] 0.022
